Experimental data published in the supplement of paper PMC10849652.
The list shows a part of the results.

Amino acid sequences for entries named in this document (tags omitted). A change or cut given only in a name is not applied to a line headed by its entry.
UniProt P54727: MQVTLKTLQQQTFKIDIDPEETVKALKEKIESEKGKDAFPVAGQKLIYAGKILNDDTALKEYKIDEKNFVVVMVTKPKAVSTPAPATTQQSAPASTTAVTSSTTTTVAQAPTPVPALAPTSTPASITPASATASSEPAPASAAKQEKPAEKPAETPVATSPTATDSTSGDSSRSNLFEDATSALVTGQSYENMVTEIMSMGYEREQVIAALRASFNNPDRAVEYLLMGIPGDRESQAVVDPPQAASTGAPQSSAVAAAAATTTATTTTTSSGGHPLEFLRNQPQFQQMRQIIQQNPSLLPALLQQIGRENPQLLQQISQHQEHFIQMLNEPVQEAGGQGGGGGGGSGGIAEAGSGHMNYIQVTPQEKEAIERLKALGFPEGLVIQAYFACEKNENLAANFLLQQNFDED
UniProt Q5T8P6: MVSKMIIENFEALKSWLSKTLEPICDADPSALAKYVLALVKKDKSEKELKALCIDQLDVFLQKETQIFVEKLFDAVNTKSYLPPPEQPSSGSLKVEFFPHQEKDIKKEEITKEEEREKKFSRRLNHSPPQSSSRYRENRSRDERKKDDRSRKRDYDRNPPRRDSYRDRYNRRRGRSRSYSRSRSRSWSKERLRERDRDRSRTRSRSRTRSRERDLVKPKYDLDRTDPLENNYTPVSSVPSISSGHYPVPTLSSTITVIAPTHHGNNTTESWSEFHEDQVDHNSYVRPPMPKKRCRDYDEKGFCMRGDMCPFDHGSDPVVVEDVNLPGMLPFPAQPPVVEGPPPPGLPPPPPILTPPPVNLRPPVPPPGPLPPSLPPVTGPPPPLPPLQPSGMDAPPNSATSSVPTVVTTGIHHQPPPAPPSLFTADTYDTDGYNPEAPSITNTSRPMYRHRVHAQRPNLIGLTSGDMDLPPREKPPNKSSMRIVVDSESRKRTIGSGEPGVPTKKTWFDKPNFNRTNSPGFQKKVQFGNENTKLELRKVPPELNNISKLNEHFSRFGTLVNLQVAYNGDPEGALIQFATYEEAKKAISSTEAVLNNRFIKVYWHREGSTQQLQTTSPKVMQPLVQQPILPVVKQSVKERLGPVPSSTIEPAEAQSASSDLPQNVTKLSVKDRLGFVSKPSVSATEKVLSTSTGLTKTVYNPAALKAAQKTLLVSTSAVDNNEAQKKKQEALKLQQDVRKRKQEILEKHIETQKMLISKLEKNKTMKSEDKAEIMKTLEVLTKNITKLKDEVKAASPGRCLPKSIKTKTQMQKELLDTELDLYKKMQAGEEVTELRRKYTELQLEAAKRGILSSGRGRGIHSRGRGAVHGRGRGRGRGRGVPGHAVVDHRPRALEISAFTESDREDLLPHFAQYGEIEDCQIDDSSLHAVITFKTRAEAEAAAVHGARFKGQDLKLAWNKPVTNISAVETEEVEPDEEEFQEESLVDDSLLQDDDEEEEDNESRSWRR
UniProt Q8WZA2: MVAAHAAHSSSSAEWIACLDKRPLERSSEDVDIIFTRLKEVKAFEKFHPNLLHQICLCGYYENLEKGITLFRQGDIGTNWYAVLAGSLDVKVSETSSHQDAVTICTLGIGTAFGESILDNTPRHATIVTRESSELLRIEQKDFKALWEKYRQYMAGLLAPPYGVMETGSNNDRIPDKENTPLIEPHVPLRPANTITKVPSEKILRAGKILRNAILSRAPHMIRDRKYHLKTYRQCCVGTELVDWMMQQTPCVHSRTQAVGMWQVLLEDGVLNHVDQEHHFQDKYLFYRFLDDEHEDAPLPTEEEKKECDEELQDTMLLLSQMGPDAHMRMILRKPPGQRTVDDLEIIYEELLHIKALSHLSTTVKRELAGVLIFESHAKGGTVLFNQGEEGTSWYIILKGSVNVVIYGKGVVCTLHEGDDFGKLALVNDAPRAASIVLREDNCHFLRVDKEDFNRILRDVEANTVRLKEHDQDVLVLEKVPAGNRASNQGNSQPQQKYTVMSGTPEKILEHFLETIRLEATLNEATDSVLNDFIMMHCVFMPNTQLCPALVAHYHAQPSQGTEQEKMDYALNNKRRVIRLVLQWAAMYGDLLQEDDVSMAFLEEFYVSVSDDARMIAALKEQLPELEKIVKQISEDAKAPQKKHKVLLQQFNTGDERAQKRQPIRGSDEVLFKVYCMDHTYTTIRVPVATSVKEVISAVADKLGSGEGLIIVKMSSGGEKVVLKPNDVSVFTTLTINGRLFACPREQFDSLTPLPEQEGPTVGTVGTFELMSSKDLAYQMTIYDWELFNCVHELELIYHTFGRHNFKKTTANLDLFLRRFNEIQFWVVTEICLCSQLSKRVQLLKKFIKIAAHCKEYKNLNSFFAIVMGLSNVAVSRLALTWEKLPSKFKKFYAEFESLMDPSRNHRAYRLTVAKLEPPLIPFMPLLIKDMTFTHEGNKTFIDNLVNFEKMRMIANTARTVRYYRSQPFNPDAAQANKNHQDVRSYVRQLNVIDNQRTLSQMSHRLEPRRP
UniProt Q92696: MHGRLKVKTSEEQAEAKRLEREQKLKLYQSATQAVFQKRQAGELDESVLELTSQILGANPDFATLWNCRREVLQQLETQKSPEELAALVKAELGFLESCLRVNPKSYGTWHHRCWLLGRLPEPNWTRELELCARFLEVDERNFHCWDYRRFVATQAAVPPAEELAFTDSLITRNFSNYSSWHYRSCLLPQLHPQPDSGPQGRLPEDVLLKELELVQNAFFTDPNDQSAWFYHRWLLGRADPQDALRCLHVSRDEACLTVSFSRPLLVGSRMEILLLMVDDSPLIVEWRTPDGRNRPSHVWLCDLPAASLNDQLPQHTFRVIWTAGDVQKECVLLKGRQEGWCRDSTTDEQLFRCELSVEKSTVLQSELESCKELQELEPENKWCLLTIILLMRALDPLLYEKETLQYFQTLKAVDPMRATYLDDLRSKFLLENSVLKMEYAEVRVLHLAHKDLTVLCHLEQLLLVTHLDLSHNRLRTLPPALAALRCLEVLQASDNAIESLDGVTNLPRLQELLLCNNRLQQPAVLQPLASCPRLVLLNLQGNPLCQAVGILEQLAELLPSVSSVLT
UniProt Q9BUV8: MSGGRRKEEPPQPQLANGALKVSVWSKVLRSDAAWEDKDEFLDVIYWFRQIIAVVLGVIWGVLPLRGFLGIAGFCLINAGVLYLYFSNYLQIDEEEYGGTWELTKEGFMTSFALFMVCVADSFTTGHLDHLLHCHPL
UniProt Q8N0T1: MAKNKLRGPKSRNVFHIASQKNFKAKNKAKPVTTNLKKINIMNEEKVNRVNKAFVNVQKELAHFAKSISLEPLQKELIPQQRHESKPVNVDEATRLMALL
UniProt Q7Z6E9: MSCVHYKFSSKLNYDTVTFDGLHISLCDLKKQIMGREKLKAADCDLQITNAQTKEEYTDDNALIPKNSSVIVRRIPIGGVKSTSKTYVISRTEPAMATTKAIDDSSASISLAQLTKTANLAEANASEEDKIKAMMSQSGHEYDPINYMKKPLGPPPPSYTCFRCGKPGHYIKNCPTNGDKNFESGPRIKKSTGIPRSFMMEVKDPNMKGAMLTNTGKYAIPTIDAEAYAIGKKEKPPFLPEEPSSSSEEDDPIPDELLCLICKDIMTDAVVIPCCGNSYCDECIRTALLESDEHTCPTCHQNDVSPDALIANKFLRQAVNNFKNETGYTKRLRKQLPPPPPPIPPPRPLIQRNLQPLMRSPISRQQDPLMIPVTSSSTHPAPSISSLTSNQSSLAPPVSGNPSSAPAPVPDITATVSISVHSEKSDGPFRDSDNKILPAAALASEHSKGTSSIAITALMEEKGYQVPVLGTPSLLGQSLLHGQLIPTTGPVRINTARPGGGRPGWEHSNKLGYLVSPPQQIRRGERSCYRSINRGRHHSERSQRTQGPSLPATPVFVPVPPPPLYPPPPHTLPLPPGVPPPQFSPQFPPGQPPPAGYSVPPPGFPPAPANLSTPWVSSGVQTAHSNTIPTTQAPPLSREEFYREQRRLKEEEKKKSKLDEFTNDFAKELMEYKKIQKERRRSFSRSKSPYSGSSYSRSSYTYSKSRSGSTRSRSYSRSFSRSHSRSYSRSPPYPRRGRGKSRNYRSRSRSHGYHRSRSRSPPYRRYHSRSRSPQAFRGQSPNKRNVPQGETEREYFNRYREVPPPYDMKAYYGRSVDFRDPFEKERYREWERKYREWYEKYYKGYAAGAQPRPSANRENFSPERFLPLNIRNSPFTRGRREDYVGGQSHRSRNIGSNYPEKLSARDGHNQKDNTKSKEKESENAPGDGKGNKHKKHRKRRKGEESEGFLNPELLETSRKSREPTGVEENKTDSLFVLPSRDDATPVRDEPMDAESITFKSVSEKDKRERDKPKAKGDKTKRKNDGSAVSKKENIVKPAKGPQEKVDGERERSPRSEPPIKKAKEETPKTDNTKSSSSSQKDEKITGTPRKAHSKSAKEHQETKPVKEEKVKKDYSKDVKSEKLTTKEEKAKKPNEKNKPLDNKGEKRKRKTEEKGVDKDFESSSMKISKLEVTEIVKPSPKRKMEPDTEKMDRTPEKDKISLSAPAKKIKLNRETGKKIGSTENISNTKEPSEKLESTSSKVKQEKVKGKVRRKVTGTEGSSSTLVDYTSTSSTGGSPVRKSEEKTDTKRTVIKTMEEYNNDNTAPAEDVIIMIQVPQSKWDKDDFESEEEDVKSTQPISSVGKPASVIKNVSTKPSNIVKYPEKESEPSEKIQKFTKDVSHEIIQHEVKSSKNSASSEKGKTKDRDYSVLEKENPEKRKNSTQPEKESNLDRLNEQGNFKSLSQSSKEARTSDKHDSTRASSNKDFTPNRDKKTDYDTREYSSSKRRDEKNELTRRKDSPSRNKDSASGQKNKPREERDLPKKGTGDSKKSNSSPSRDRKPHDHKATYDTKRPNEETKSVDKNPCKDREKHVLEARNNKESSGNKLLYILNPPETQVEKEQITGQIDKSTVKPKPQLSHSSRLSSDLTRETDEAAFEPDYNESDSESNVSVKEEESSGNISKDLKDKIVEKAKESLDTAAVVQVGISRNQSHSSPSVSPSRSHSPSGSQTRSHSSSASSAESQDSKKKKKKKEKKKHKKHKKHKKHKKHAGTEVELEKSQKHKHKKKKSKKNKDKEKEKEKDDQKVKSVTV
UniProt P51148: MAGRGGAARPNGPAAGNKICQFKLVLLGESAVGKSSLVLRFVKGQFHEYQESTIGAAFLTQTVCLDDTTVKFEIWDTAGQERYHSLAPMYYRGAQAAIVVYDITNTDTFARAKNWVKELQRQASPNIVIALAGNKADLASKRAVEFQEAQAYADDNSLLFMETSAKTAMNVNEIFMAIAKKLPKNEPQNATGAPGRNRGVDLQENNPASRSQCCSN
UniProt O00194: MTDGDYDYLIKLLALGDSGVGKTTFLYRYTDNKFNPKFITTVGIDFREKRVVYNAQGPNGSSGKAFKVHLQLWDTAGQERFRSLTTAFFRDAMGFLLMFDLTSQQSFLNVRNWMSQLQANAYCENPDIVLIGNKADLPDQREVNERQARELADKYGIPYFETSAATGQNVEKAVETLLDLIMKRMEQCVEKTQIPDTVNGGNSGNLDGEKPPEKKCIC
UniProt A4D1S5: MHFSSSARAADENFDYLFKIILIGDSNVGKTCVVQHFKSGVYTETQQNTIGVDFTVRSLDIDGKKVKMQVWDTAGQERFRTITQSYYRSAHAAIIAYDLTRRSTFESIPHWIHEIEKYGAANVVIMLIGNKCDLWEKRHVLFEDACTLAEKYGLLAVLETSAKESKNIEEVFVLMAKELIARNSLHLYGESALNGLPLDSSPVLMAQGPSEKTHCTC

Key:
Test in all cases: log2 fold change, soluble protein after heating vs DMSO (PISA); higher = thermal stabilisation; K562 cells, 10 uM, 30 min; active = over 0.2 and 3.5 SD of the protein, either way, in both replicates (recomputed)
[1] = compound: CS(=O)(=O)c1ccc(-c2cnc(N)c(C(=O)Nc3ccccc3)n2)cc1
Procedure, shortened: (§1)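 For each measurement, 10 μM compound was applied for 30 min to K562 cells at 2×10^6 cells/mL. Aliquots were heated for 3 min across 48°C-58°C, pooled, and extracted in PBS with 0.5% NP-40 at 4°C; the supernatant after 21,000xg for 90 min was soluble protein. This was quantified by TMTpro 16plex LC-MS/MS with channel sums equalised, and thermal stability was reported relative to control samples from duplicates, on a log2 fold-change scale.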

crizotinib = compound: C[C@@H](Oc1cc(-c2cnn(C3CCNCC3)c2)cnc1N)c1c(Cl)ccc(F)c1Cl [crizotinib]
Procedure, shortened: as §1

[2] = compound: C[C@@H]1COCCN1C2=NC(=NC(=C2)C3(CC3)S(=O)(=O)C)C4=C5C=CNC5=CC=C4
Procedure, shortened: as §1

[3] = compound: C[C@H](C1=CC=C(C=C1)C(=O)NC2=C3C=CNC3=NC=C2)N
Procedure, shortened: as §1

duvelisib = compound: C[C@H](Nc1ncnc2nc[nH]c12)c1cc2cccc(Cl)c2c(=O)n1-c1ccccc1 [duvelisib]
Procedure, shortened: as §1

gandotinib = compound: Cc1cc(Nc2cc(CN3CCOCC3)c3nc(C)c(Cc4ccc(Cl)cc4F)n3n2)n[nH]1 [gandotinib]
Procedure, shortened: as §1

tozasertib = compound: Cc1cc(Nc2cc(N3CCN(C)CC3)nc(Sc3ccc(NC(=O)C4CC4)cc3)n2)n[nH]1 [tozasertib]
Procedure, shortened: as §1

[4] = compound: Cc1cc(SCc2sc(-c3ccc(C(F)(F)F)cc3)nc2C)ccc1OCC(=O)O
Procedure, shortened: as §1

doramapimod = compound: Cc1ccc(-n2nc(C(C)(C)C)cc2NC(=O)Nc2ccc(OCCN3CCOCC3)c3ccccc23)cc1 [doramapimod]
Procedure, shortened: as §1

ispinesib = compound: Cc1ccc(C(=O)N(CCCN)[C@@H](c2nc3cc(Cl)ccc3c(=O)n2Cc2ccccc2)C(C)C)cc1 [ispinesib]
Procedure, shortened: as §1

bafetinib = compound: Cc1ccc(NC(=O)c2ccc(CN3CC[C@H](N(C)C)C3)c(C(F)(F)F)c2)cc1Nc1nccc(-c2cncnc2)n1 [bafetinib]
Procedure, shortened: as §1

[5] = compound: Cc1cccc(CC(=O)N2CCc3c2ccc(-c2cn(C)c4ncnc(N)c24)c3F)n1
Procedure, shortened: as §1

nilotinib = compound: Cc1cn(-c2cc(NC(=O)c3ccc(C)c(Nc4nccc(-c5cccnc5)n4)c3)cc(C(F)(F)F)c2)cn1 [nilotinib]
Procedure, shortened: as §1

[6] = compound: Cc1nc(Nc2n[nH]c3c2CN(C(=O)N[C@H](CN(C)C)c2ccccc2)C3(C)C)c2sccc2n1
Procedure, shortened: as §1

dasatinib = compound: Cc1nc(Nc2ncc(C(=O)Nc3c(C)cccc3Cl)s2)cc(N2CCN(CCO)CC2)n1 [dasatinib]
Procedure, shortened: as §1

[7] = compound: Cc1ncc(-c2ccnc(Nc3ccc(S(C)(=O)=O)cc3)n2)n1C(C)C
Procedure, shortened: as §1

[8] = compound: Cn1cc(-c2ccc3c(c2)CCN3C(=O)Cc2cccc(C(F)(F)F)c2)c2c(N)ncnc21
Procedure, shortened: as §1

[9] = compound: Cn1cc(-c2ccc3nnc(C(F)(F)c4ccc5ncccc5c4)n3n2)cn1
Procedure, shortened: as §1

tipifarnib = compound: Cn1cncc1[C@@](N)(c1ccc(Cl)cc1)c1ccc2c(c1)c(-c1cccc(Cl)c1)cc(=O)n2C [tipifarnib]
Procedure, shortened: as §1

mubritinib = compound: FC(F)(F)c1ccc(/C=C/c2nc(COc3ccc(CCCCn4ccnn4)cc3)co2)cc1 [mubritinib]
Procedure, shortened: as §1

Measured: log2 fold change

RAD23B (UniProt P54727)
inactive: [1] -0.002 | crizotinib 0.044 | [2] 0.019 | [3] 0.001 | duvelisib 0.005 | gandotinib -0.013 | tozasertib -0.003 | [4] -0.065 | doramapimod -0.013 | ispinesib 0.008 | bafetinib -0.063 | [5] -0.043 | nilotinib 0.012 | [6] -0.006 | dasatinib 0.055 | [7] 0.009 | [8] 0.003 | [9] 0.013 | tipifarnib 0.026 | mubritinib 0.045

RABGAP1L isoform 5 (UniProt Q5R372)
inactive: [1] 0.071 | crizotinib 0.003 | [2] 0.022 | [3] 0.046 | [4] -0.015 | doramapimod -0.073 | bafetinib -0.031 | nilotinib 0.112 | [6] -0.003 | dasatinib -0.054 | [7] -0.047 | [8] -0.002 | tipifarnib 0.073 | mubritinib 0.036

RAVER1 (UniProt E9PAU2)
inactive: [1] 0.061 | crizotinib 0.049 | [2] 0.188 | [3] -0.381 | gandotinib -0.091 | [4] 0.132 | doramapimod 0.002 | ispinesib -0.171 | bafetinib -0.155 | [5] 0 | nilotinib -0.091 | [6] -0.319 | dasatinib -0.309 | [7] -0.299 | [8] 0.155 | [9] 0.011 | tipifarnib -0.351 | mubritinib 0.134

RBM26 isoform 2 (UniProt Q5T8P6)
inactive: [1] -0.012 | crizotinib 0.03 | [2] 0.374 | [3] -0.154 | gandotinib -0.056 | [4] 0.136 | doramapimod -0.036 | ispinesib -0.089 | bafetinib -0.003 | [5] 0.058 | nilotinib -0.088 | [6] -0.432 | dasatinib -0.176 | [7] 0.021 | [8] 0.12 | [9] 0.168 | tipifarnib -0.033 | mubritinib 0.045

RBM17 (UniProt Q96I25)
inactive: [1] -0.043 | crizotinib -0.065 | [2] 0.106 | [3] 0.02 | gandotinib -0.031 | [4] 0.106 | doramapimod -0.028 | ispinesib 0.007 | bafetinib -0.056 | [5] 0.042 | nilotinib -0.095 | [6] -0.249 | dasatinib -0.108 | [7] 0.011 | [8] -0.067 | [9] -0.028 | tipifarnib -0.042 | mubritinib -0.148

RAPGEF4 (UniProt Q8WZA2)
inactive: [1] 0.115 | crizotinib 0.051 | [2] 0.04 | [3] -0.061 | [4] -0.139 | doramapimod 0.097 | bafetinib -0.075 | dasatinib 0.088 | [8] 0.201 | mubritinib 0.038

RABGGTA (UniProt Q92696)
inactive: [1] -0.035 | crizotinib -0.076 | [2] 0.046 | [3] -0.058 | gandotinib -0.004 | [4] -0.008 | doramapimod 0.017 | ispinesib 0.026 | bafetinib -0.019 | [5] 0.027 | nilotinib 0.033 | [6] -0.088 | dasatinib 0.076 | [7] -0.076 | [8] 0.089 | [9] -0.015 | tipifarnib 0.08 | mubritinib 0.002

RAB5IF isoform 5 (UniProt Q9BUV8)
inactive: [1] -0.036 | crizotinib -0.094 | [2] 0.076 | [3] -0.007 | gandotinib 0.04 | [4] -0.002 | doramapimod 0.025 | ispinesib 0.157 | bafetinib 0.034 | [5] -0.01 | nilotinib -0.042 | [6] -0.011 | dasatinib 0.062 | [7] -0.051 | [8] -0.054 | [9] 0 | tipifarnib -0.013 | mubritinib 0.079

Quoted from the entries so far (2 entries):
RBM17 (UniProt Q96I25)
inactive: [1] -0.043 | crizotinib -0.065 | [2] 0.106 | [3] 0.02 | gandotinib -0.031 | [4] 0.106 | doramapimod -0.028 | ispinesib 0.007 | bafetinib -0.056 | [5] 0.042 | nilotinib -0.095 | [6] -0.249 | dasatinib -0.108 | [7] 0.011 | [8] -0.067 | [9] -0.028 | tipifarnib -0.042 | mubritinib -0.148

RAPGEF4 (UniProt Q8WZA2)
inactive: [1] 0.115 | crizotinib 0.051 | [2] 0.04 | [3] -0.061 | [4] -0.139 | doramapimod 0.097 | bafetinib -0.075 | dasatinib 0.088 | [8] 0.201 | mubritinib 0.038

Continued.

RAF1 isoform 2 (UniProt P04049)
inactive: [1] 0.023 | crizotinib -0.305 | [2] -0.135 | [3] -0.092 | gandotinib 0.131 | [4] 0.035 | doramapimod 0.133 | ispinesib -0.145 | bafetinib -0.062 | [5] -0.168 | dasatinib -0.191 | [8] 0.181 | [9] -0.144 | tipifarnib -0.185 | mubritinib -0.286

RBIS (UniProt Q8N0T1)
inactive: [1] -0.157 | crizotinib -0.097 | [2] -0.086 | [3] 0.069 | gandotinib 0.053 | [4] -0.045 | doramapimod 0.062 | ispinesib 0.009 | bafetinib 0.012 | [5] -0.058 | nilotinib -0.058 | [6] 0.101 | dasatinib 0.008 | [7] -0.079 | [8] 0.023 | [9] 0.004 | tipifarnib -0.02 | mubritinib 0.021

RBBP6 (UniProt Q7Z6E9)
inactive: [1] -0.117 | crizotinib -0.158 | [2] -0.036 | [3] 0.072 | gandotinib -0.066 | doramapimod 0.012 | ispinesib 0.168 | bafetinib -0.018 | [5] -0.004 | nilotinib 0 | [6] -0.031 | [7] -0.003 | [8] 0.003 | [9] -0.01 | tipifarnib -0.058 | mubritinib -0.171

RAB3IL1 (UniProt E9PK89)
inactive: [1] 0.036 | crizotinib -0.003 | [2] 0.163 | [3] -0.211 | gandotinib 0.154 | doramapimod -0.07 | ispinesib 0.07 | bafetinib -0.053 | [5] 0.01 | nilotinib -0.007 | [6] -0.189 | [7] -0.101 | [8] 0.258 | [9] 0.056 | tipifarnib -0.035

RAD50 isoform 2 (UniProt Q92878)
inactive: [1] 0.031 | crizotinib 0.064 | [2] 0.044 | [3] -0.039 | gandotinib -0.017 | [4] 0.021 | doramapimod -0.023 | ispinesib 0.033 | bafetinib -0.015 | [5] 0.009 | nilotinib -0.039 | [6] -0.112 | dasatinib -0.089 | [7] -0.016 | [8] 0.023 | [9] 0.042 | tipifarnib -0.017 | mubritinib 0.063

RAB5C isoform 2 (UniProt P51148)
inactive: [1] -0.015 | crizotinib 0.099 | [2] 0.015 | [3] -0.092 | gandotinib -0.021 | [4] 0.014 | doramapimod 0.013 | ispinesib 0.054 | bafetinib -0.005 | [5] -0.021 | nilotinib 0.019 | [6] -0.019 | dasatinib 0.014 | [7] -0.003 | [8] 0.043 | [9] -0.027 | tipifarnib 0.006 | mubritinib 0.031

RAB3GAP2 (UniProt Q9H2M9)
inactive: [1] 0.019 | crizotinib -0.064 | [2] -0.024 | [3] 0.213 | gandotinib 0.003 | [4] 0.119 | doramapimod 0.046 | ispinesib -0.097 | bafetinib 0.059 | [5] 0.091 | nilotinib -0.026 | [6] -0.088 | dasatinib -0.14 | [7] 0.006 | [8] -0.077 | [9] -0.029 | tipifarnib -0.046 | mubritinib -0.087

RBM25 (UniProt P49756)
inactive: [1] -0.071 | crizotinib -0.052 | [2] 0.09 | [3] -0.01 | gandotinib -0.166 | [4] -0.074 | doramapimod 0.057 | ispinesib -0.049 | bafetinib -0.067 | [5] -0.066 | nilotinib -0.012 | [6] -0.03 | dasatinib -0.049 | [7] -0.129 | [8] -0.044 | [9] -0.096 | tipifarnib 0.068 | mubritinib 0.049

RAB27B (UniProt O00194)
inactive: [1] -0.002 | crizotinib 0.072 | [3] -0.204 | duvelisib -0.026 | gandotinib -0.071 | tozasertib 0.027 | [4] 0.051 | doramapimod 0.032 | ispinesib -0.002 | bafetinib -0.074 | [5] -0.061 | nilotinib 0.027 | [6] 0.015 | dasatinib 0.076 | [7] -0.016 | [8] 0.021 | [9] -0.039 | tipifarnib 0.038 | mubritinib 0.025

RAB19 isoform 2 (UniProt A4D1S5)
inactive: [1] 0.03 | crizotinib -0.015 | [2] -0.029 | doramapimod 0.171 | bafetinib -0.119

RAB40C (UniProt Q96S21)
inactive: [1] 0.018 | crizotinib 0.001 | [2] 0.063 | duvelisib -0.213 | gandotinib -0.236 | tozasertib 0.051 | [4] -0.215 | doramapimod 0.022 | ispinesib -0.055 | bafetinib -0.19 | [5] -0.057 | nilotinib -0.108 | [6] 0.004 | dasatinib 0.059 | [7] 0.693 | [9] 0.02 | tipifarnib -0.059 | mubritinib -0.282
